Source: paper PMC11558545, “Mechanistic Insights into the Function of 14-3-3 Proteins as Negative Regulators of Brassinosteroid Signaling in Arabidopsis” (Plant and Cell Physiology, 2024)
No constants are given. Whether binding was seen depends on the method and setting.

Chains of the proteins cited; added tags and fusions are not shown. Residues count along the entry.
UniProt Q944A7, residues 55-512: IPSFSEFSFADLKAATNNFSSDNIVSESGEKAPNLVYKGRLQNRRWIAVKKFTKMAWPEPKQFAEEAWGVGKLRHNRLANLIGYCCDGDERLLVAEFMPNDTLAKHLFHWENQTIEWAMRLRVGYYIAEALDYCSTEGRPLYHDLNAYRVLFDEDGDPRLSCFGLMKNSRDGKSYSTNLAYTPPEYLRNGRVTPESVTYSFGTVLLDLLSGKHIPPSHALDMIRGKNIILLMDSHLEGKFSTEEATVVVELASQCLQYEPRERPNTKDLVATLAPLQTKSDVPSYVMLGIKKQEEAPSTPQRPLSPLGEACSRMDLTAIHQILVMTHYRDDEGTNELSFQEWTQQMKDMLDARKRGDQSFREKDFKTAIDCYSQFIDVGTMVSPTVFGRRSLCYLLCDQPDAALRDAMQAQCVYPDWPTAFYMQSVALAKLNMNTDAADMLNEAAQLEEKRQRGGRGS
UniProt Q9LR78: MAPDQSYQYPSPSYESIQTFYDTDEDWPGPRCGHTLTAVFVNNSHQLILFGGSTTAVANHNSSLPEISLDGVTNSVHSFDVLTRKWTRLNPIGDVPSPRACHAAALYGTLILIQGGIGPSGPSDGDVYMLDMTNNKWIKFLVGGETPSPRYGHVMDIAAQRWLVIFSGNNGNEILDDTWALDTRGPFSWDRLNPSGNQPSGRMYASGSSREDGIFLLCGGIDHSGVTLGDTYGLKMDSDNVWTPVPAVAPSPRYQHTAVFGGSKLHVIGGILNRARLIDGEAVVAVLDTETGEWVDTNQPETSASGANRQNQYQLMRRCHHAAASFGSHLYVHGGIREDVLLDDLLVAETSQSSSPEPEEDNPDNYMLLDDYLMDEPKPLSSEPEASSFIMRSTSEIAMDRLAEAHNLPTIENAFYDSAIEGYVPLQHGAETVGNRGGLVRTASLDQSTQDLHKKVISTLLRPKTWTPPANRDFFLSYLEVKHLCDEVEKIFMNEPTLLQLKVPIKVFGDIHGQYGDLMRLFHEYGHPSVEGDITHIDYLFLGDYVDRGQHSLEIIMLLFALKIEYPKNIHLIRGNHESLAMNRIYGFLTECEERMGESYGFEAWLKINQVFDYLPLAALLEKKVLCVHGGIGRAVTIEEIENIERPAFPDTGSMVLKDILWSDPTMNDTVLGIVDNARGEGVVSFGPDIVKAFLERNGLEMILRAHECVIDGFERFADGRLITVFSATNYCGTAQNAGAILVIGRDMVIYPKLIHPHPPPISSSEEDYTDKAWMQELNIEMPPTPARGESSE

Target: T1, Arabidopsis 14-3-3 isoform kappa (At14-3-3-κ^1−248) (Arabidopsis thaliana) (UniProt P48348)
T1 sequence: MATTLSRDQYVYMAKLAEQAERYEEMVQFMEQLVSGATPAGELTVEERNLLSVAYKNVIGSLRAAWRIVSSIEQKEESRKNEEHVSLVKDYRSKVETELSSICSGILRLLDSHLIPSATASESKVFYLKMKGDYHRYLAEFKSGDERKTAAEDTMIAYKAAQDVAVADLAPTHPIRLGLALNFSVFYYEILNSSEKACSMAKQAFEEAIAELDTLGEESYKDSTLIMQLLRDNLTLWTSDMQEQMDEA
Assay: ITC; 14-3-3κ versus purified globular domains of BR signaling components (BRI1, BAK1 and BSK1 after auto-/transphosphorylation); Nano ITC, 25°C, 25 mM Hepes pH 7.0, 50 mM KCl; both purified

| binding | Substance |
| --- | --- |
| no binding | BSK1 (residues 55–512), after incubation with BRI1^814−1196 (from UniProt Q944A7 55-512) (domain or fragment) |
| no binding | full-length BSU1 (residues 1–793) (from UniProt Q9LR78 1-793) (enzyme) |
